This assay addresses ABCB6/HMT-1 of C. elegans, full length, expressed in worms as ABCB6/HMT-1::GFP and ABCB6/HMT-1::RFP (C. elegans) (UniProt G5EFD4). Description: co-IP; membrane proteins of worms co-expressing ABCB6/HMT-1::GFP and ABCB6/HMT-1::RFP in IP buffer (1% PFO, 50 mM Tris-Cl, 150 mM NaCl, pH 7.4), pre-cleared with Protein G beads, anti-GFP conjugated beads 4 h at 4°C, immunoblot. In general terms: A western blot detects proteins with antibodies after separation by electrophoresis.

No constants are given. Whether binding was seen depends on the method and setting. In cells and extracts the contact can be indirect. Some entries that bind do so weakly or less than the wild type. Tags and fused reporters may be left off the sequences shown.

This note sets out measurements from article PMC6077975.

B1: ABCB6/HMT-1 of C. elegans, full length, expressed in worms as ABCB6/HMT-1::GFP and ABCB6/HMT-1::RFP (protein, UniProt G5EFD4 1-801)
chain: MGFSPFLDECRAEGLWPIGPSCNKIISFGVYTFFIVVNFIVLCIPNSNSANNNYRRMTDDDASSTSKLTISKILSICTIFAVICQSIFYFCFTFYFHPYTHLLLAFCVSKLFFWILSLCSFSKWRNQPSTPISLAFAFSAALLIHCIPLTDWKKYFEPTSKNRGDLTFYIIELALVTVVFFFTIVTGLFNFSGCSSRESAWNNLSKKVVTVAPYIWPTKSISLQLRVVFCLFLLIIGRLINVSLPILSKWIVDELATPDTFQYSLLFLATFLKFLQGNGAMGGFLNTVRTYLWIPIQQYTTRELEVELFKHLHSLSLRWHLSRKTGQVLRVMDRGTSSVNNILNYILFNVVPTIADIVIAVIFFFSAFNAYFGLIVFGTMALYLTVTISITEWRTQYIREANEKDNATSAIATDSLINYETVKYYGNEEFEVNRFKNAIESYQVTEWKTQASLAFLNCLQNAIIGIGMIGGSVFVVYMIVHEKTLTVGDYVLFTTYLLQLYTPLNFFGTIYRVIQKAFVDMENMFDLMNDEVEVKDLPHALPYTDPRGTISVKNLTFEYNTGLPVIKNISFEIGNGQTVALVGSSGSGKSTLIRLLFRLFESTEGSIEFDGIDVRNYTMHSLRQQIGIVPQDTVLFNDTIMYNIRFGRPDASDEEVIEAAKAAMIHEKITSLPEGYATMVGERGLKLSGGEKQRVAIARTILKKPQFIFLDEATSALDTPTERAIQKCLEKLCKSRTGVVVAHRLSTVVNADLILVLDKGIILERGNHKELLAQQGTYASMWEAQIAEQRAKSIELGEELP
With B1, the binding entry was “binds”.
